Assay results reported in paper PMC7819943, “Rice protein-binding microarrays: a tool to detect cis-acting elements near promoter regions in rice”.
The other results are listed elsewhere or left out.

The chains behind the UniProt entries cited, without tags or fusion partners.
UniProt Q0JBA9, entry or part of it: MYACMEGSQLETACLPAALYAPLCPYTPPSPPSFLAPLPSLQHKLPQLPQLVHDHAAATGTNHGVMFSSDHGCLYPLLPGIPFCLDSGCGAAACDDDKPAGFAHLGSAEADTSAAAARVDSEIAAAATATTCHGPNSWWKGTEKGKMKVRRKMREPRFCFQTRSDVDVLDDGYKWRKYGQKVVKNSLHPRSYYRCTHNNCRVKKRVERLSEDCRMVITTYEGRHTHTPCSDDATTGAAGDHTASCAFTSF

These sequences were tested against OsWRKY34 (Oryza sativa, UniProt Q0JBA9 1-250) (assay: protein-binding microarray (RPBM); PBS, 2% BSA, 51.3 ng/ul salmon testes DNA, 50 uM zinc acetate, 200 nM TF, 25 C, 1 h; high values mean tight binding). Settings: protein: recombinant; tags: N-terminal polyhistidine and DsRed monomer fusion (pET32a); label: CyDye5-dUTP incorporated in the synthesized complementary strand; 3' TTTTT single-stranded linker to array surface; dsDNA, one strand shown.
How it was run: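 Binding signal is defined as the fluorescence intensity of each feature in arbitrary units, read on an Axon 4000B scanner. Transcription factors with N-terminal polyhistidine and DsRed fusions came from E. coli BL21-CodonPlus and were purified on Ni–NTA. They were incubated at 200 nM for 1 h at 25 °C on a custom Agilent array that had been made double-stranded with Cy5-dUTP, with 50 µM zinc acetate present, and the array was washed.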

For “ATGTGGCTAGAGTTGGGGTTTAGTGTCAGTTGTTAGGGATCGGAGTCACCTAGTGCAG”, which binding signal is on record?
The binding signal was 11200 fluorescence intensity (a.u.).

How did the binding signal turn out when “CCCAACGCTAATCGTTACCACGCGCACACACGCTTCACTTCGGAGTCACCTAGTGCAG” was run?
Its binding signal is 8340 fluorescence intensity (a.u.).

“ACCCCATCTACCAGCAGCTTCCTCTCTATGACTATATATACGGAGTCACCTAGTGCAG” was tested. Which binding signal did it give?
Its binding signal is 12800 fluorescence intensity (a.u.).

How did the binding signal turn out when “GGGAGAGATCTGTTGTTGTTGTGAAACCCCTCTATCCTTCCGGAGTCACCTAGTGCAG” was run?
Its binding signal is 9460 fluorescence intensity (a.u.).

With “CTTTACATCTATCAGGTTTGTCAGCCACCATGTTAACACCCGGAGTCACCTAGTGCAG” as the sequence, how does the binding signal read?
The binding signal was 11000 fluorescence intensity (a.u.).

Which binding signal does the source give for “CAAACAAAATGGGTTTCTTCTTACGGTTGTGGGCTTTTTCCGGAGTCACCTAGTGCAG” here?
The binding signal was 17400 fluorescence intensity (a.u.).

For “CGTCGTCGTCGTCGTCGTCACAGGCAAGAAGAGGAGAAGGCGGAGTCACCTAGTGCAG”, which binding signal is on record?
The binding signal was 8240 fluorescence intensity (a.u.).

With “TCTCTCTCTCCTCTTCAATTCTCTCTCTACCTCCGCTGCGCGGAGTCACCTAGTGCAG” as the sequence, how does the binding signal read?
Its binding signal is 11300 fluorescence intensity (a.u.).

“ATGACCTATCTCGTGTTATGCGCTGGGGTGGAGGTCTGTCCGGAGTCACCTAGTGCAG” was tested. Which binding signal did it give?
The binding signal was 9620 fluorescence intensity (a.u.).

“CTTAGAGCTAACACGCTCACCTTTTATACTTGCTCTAACCCGGAGTCACCTAGTGCAG” was tested. Which binding signal did it give?
Its binding signal is 10600 fluorescence intensity (a.u.).

“CCTTAGTCAGCCTCTGCTTCTGCTCCGTGCTCGCCGGCGCCGGAGTCACCTAGTGCAG” was tested. Which binding signal did it give?
The binding signal was 12600 fluorescence intensity (a.u.).

With “TTTAAGTTGCATAGTCTGGTCATTTTATGCACTGAATGGTCGGAGTCACCTAGTGCAG” as the sequence, how does the binding signal read?
The binding signal was 8940 fluorescence intensity (a.u.).

For “TCTGTACTGCTTTGGGATTATATTTACACTGGTTTTACAACGGAGTCACCTAGTGCAG”, which binding signal is on record?
The binding signal was 8630 fluorescence intensity (a.u.).

For “CCCAAAGACTTGGCACATATGCATGCAACCAACTAATTTTCGGAGTCACCTAGTGCAG”, which binding signal is on record?
The binding signal was 8270 fluorescence intensity (a.u.).

For “GGGATGCTTCTTTTGTGTGATATCTTTACATGTCGGTCTACGGAGTCACCTAGTGCAG”, which binding signal is on record?
Its binding signal is 9840 fluorescence intensity (a.u.).

“CACATGTTCTCTCTCTCTCTCTCTCTCTCTCTCTCTCTCTCGGAGTCACCTAGTGCAG” was tested. Which binding signal did it give?
Its binding signal is 10100 fluorescence intensity (a.u.).

With “AACTTAAATCACAACTCAGTTTCAGTACTTGAATTTCAGACGGAGTCACCTAGTGCAG” as the sequence, how does the binding signal read?
Its binding signal is 8300 fluorescence intensity (a.u.).

“GTAACACTGTGGCTGCTTTTCTCCTGCTTACCTTTTCTTTCGGAGTCACCTAGTGCAG” was tested. Which binding signal did it give?
Its binding signal is 9690 fluorescence intensity (a.u.).

For “CAGGGAGTGGGGTCTTTTTGGTAGGATGATTGAATCCAACCGGAGTCACCTAGTGCAG”, which binding signal is on record?
The binding signal was 9000 fluorescence intensity (a.u.).

With “CGGACAGCCAGCCACCACCGTTGCTGGCTACTCACTCTCACGGAGTCACCTAGTGCAG” as the sequence, how does the binding signal read?
The binding signal was 8430 fluorescence intensity (a.u.).

Which binding signal does the source give for “GCTCCAATCTCTAACCTGGGAGGGTTGCCCTTTATTACCTCGGAGTCACCTAGTGCAG” here?
Its binding signal is 8090 fluorescence intensity (a.u.).

With “TGTGTCTGTTTTGACTGCTCGTGGTTGGTTTCTTGTTTAGCGGAGTCACCTAGTGCAG” as the sequence, how does the binding signal read?
Its binding signal is 9170 fluorescence intensity (a.u.).

How did the binding signal turn out when “TCTCTAGACCTGTAAGCCCTGAACTCACCTCATCCATTTTCGGAGTCACCTAGTGCAG” was run?
Its binding signal is 9240 fluorescence intensity (a.u.).

For “GTCTGTGATAATTTTGTTCTCTTCTTGTTGGGGTCTTGGGCGGAGTCACCTAGTGCAG”, which binding signal is on record?
The binding signal was 10200 fluorescence intensity (a.u.).

For “TGGAGCGAATTTCAGATTGGGTTGTTTGCGGGGCTAAGTTCGGAGTCACCTAGTGCAG”, which binding signal is on record?
The binding signal was 11800 fluorescence intensity (a.u.).

For “ACAACGAAGCCTCTCTGGTCAACTCTCACCCGCACGTACGCGGAGTCACCTAGTGCAG”, which binding signal is on record?
The binding signal was 11700 fluorescence intensity (a.u.).

How did the binding signal turn out when “TTCTCTTCTGCGCTCTCGGCTACTTGTACTCCCGAGATGCCGGAGTCACCTAGTGCAG” was run?
Its binding signal is 9170 fluorescence intensity (a.u.).

With “ATGTGTGACTTGTCTTTTTAATTTTTTTTTTAATTTTTTTCGGAGTCACCTAGTGCAG” as the sequence, how does the binding signal read?
Its binding signal is 9610 fluorescence intensity (a.u.).

For “CCCAACCACCCCGACCGCGTTCCGGCGGTTGCTGCAACCTCGGAGTCACCTAGTGCAG”, which binding signal is on record?
The binding signal was 8980 fluorescence intensity (a.u.).

For “CACCTACCGGGACAGCGCCGACTTCAACCGGACCGACGACCGGAGTCACCTAGTGCAG”, which binding signal is on record?
Its binding signal is 8410 fluorescence intensity (a.u.).

“GCCGCGCGCGCCGTCGTCCAGCCGCTGTCACGCCGCGCGGCGGAGTCACCTAGTGCAG” was tested. Which binding signal did it give?
The binding signal was 9000 fluorescence intensity (a.u.).

Which binding signal does the source give for “GTATTGCTAGTGGGCGGGTGATCGCTTCCCTCTCCTTCCTCGGAGTCACCTAGTGCAG” here?
Its binding signal is 9610 fluorescence intensity (a.u.).

How did the binding signal turn out when “TCATGTGCTTCTTCATCTTCAGCTTTGCATGTAGCCTACTCGGAGTCACCTAGTGCAG” was run?
Its binding signal is 10100 fluorescence intensity (a.u.).

For “ACTAATTTCTTGCTAATTTTTTTCCTTTGCTCCTATCTCTCGGAGTCACCTAGTGCAG”, which binding signal is on record?
Its binding signal is 10400 fluorescence intensity (a.u.).

Which binding signal does the source give for “CCGGCACACTGGTTTCCCTTGCATTAGATGATCACATTCACGGAGTCACCTAGTGCAG” here?
Its binding signal is 8270 fluorescence intensity (a.u.).

“GCCGCCACCATCTCTCATCGGACCATCGCAGCTCGACTCCCGGAGTCACCTAGTGCAG” was tested. Which binding signal did it give?
The binding signal was 10100 fluorescence intensity (a.u.).

“ACGTGGAGGGGTTATTTGCACGCGAATCCGCGTAGATTTCCGGAGTCACCTAGTGCAG” was tested. Which binding signal did it give?
Its binding signal is 8070 fluorescence intensity (a.u.).

Which binding signal does the source give for “GATGGTGTGTGGTGTTTCCTTTTTTTTTTCTCTGGAAACGCGGAGTCACCTAGTGCAG” here?
The binding signal was 8440 fluorescence intensity (a.u.).

How did the binding signal turn out when “CTACTTGCTTCTTTCCTCCTTTCTTCCTCCTCCTCCTACACGGAGTCACCTAGTGCAG” was run?
Its binding signal is 9410 fluorescence intensity (a.u.).

For “CCTGTTTGCCAGTCCTTACATTCTTCGAGAAGTAGATCCCCGGAGTCACCTAGTGCAG”, which binding signal is on record?
Its binding signal is 8530 fluorescence intensity (a.u.).

How did the binding signal turn out when “TTATTTATAGCTCCGCCATGCACGCATCCATGTCGATCGTCGGAGTCACCTAGTGCAG” was run?
Its binding signal is 8840 fluorescence intensity (a.u.).

How did the binding signal turn out when “AGATTCTAGACATTACCAGTTTACCACAGCTTTCCTACTTCGGAGTCACCTAGTGCAG” was run?
The binding signal was 8090 fluorescence intensity (a.u.).

For “GCTGCCGTCCGTTGAAATATTTACATTTTGGTCCTCGTGACGGAGTCACCTAGTGCAG”, which binding signal is on record?
The binding signal was 12300 fluorescence intensity (a.u.).

Which binding signal does the source give for “ACACACTACCTCTACATGTTGAATACCTCTTCTGTCCCAACGGAGTCACCTAGTGCAG” here?
The binding signal was 8030 fluorescence intensity (a.u.).

With “CGTCCAGGATGAATCTCATCCAATTTGCTTTTCTCTATATCGGAGTCACCTAGTGCAG” as the sequence, how does the binding signal read?
The binding signal was 8930 fluorescence intensity (a.u.).

With “GCTACAAATCTGTAACCCGCTGCCCTTCTCTCTCCTCATTCGGAGTCACCTAGTGCAG” as the sequence, how does the binding signal read?
The binding signal was 8550 fluorescence intensity (a.u.).

How did the binding signal turn out when “GACCCCACTGCTATTTTTTTCTGGATCCGCCAATAGCCAACGGAGTCACCTAGTGCAG” was run?
The binding signal was 10000 fluorescence intensity (a.u.).

How did the binding signal turn out when “CCTATGTATTTCTCGTGTTGGTTAGACAGTTCACTTATTGCGGAGTCACCTAGTGCAG” was run?
The binding signal was 8660 fluorescence intensity (a.u.).

Which binding signal does the source give for “GCGGGAGGAGGAGGGGAGGGAATCGCAGCTGCTGCGGCGGCGGAGTCACCTAGTGCAG” here?
The binding signal was 8280 fluorescence intensity (a.u.).

For “CGCCGCCGCAGCCGCCGCCATCCCACCGCCGGACTCCGGCCGGAGTCACCTAGTGCAG”, which binding signal is on record?
Its binding signal is 11200 fluorescence intensity (a.u.).

With “GCCGTTCTCGGCGCGCCGCCTCGTCCCGGCGCTCTTCCCGCGGAGTCACCTAGTGCAG” as the sequence, how does the binding signal read?
The binding signal was 8150 fluorescence intensity (a.u.).

For “TATTCATCTCAACTTTTCTTTTTGAATGCGCTTATAATTTCGGAGTCACCTAGTGCAG”, which binding signal is on record?
The binding signal was 8440 fluorescence intensity (a.u.).

For “GTCAAAACTTCTTACTCTTATCAATTGTTTGTGCAGTTTGCGGAGTCACCTAGTGCAG”, which binding signal is on record?
Its binding signal is 10600 fluorescence intensity (a.u.).

With “CTACCTTTATACATGCCCTTACACTGTTTTACCATATTATCGGAGTCACCTAGTGCAG” as the sequence, how does the binding signal read?
Its binding signal is 11500 fluorescence intensity (a.u.).
